Patent US20250008983A1, “COMPOSITIONS CONTAINING PEROXYACIDS TO CONTROL PATHOGEN GROWTH IN ANIMAL FEED AND RELATED METHODS” (KEMIN INDUSTRIES, INC., priority 2023, published 2025)

Assay: Corrosivity on stainless steel plates
Conditions: partially or wholly immersed, as-is or diluted with water; up to 6 months of monitoring

| Compound | Corrosivity on stainless steel plates |
| --- | --- |
| CCC(=O)OO [Perpropionic acid, perpropionic acid] | No corrosivity issues were observed |
| CC(=O)OO [Peracetic acid, peracetic acid] | No corrosivity issues were observed |
